The values below come from PMC8873275.

Amino acid sequences for entries named in this document (tags omitted).
UniProt P46937: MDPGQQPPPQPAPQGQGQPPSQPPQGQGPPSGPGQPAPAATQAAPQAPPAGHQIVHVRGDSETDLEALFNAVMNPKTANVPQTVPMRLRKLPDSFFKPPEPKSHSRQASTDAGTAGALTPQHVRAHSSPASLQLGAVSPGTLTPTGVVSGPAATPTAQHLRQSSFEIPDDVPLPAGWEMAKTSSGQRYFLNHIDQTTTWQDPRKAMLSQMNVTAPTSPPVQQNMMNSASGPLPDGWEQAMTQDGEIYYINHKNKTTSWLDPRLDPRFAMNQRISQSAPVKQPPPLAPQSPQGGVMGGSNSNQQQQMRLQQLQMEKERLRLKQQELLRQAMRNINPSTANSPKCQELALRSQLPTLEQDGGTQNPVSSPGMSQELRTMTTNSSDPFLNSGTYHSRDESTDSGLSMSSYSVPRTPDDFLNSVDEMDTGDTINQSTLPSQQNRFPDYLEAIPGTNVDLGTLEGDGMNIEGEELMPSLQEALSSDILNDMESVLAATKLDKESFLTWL
UniProt Q969U6: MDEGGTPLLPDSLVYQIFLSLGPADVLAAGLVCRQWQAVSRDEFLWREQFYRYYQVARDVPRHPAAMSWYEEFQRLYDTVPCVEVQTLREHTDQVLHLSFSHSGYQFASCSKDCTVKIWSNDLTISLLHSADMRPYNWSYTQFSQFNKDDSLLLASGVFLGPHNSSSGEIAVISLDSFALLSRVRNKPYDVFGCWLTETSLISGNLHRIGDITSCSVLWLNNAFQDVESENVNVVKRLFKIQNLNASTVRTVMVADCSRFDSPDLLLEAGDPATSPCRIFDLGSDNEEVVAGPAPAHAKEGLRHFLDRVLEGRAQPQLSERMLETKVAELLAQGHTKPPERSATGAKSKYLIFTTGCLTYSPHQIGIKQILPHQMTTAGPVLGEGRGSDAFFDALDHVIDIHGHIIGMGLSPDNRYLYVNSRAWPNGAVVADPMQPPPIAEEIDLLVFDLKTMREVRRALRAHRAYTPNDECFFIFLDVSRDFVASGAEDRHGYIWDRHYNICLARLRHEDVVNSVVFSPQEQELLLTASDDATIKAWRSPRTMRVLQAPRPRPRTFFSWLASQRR

Holding throughout (test): co-IP; HEK-293T cells transfected with myc-FBXW5 (or its ΔF-box or ΔWD deletion mutants) and flag-LATS1, flag-LATS2 or flag-YAP1 plasmids; procedure as in ref. 9
The target of assay [1] is Flag-YAP1 (yes-associated protein) (UniProt P46937).
For assay [2], the target named is T1, Flag-LATS1 (large tumor suppressor kinase 1) (UniProt O95835).
T1 sequence: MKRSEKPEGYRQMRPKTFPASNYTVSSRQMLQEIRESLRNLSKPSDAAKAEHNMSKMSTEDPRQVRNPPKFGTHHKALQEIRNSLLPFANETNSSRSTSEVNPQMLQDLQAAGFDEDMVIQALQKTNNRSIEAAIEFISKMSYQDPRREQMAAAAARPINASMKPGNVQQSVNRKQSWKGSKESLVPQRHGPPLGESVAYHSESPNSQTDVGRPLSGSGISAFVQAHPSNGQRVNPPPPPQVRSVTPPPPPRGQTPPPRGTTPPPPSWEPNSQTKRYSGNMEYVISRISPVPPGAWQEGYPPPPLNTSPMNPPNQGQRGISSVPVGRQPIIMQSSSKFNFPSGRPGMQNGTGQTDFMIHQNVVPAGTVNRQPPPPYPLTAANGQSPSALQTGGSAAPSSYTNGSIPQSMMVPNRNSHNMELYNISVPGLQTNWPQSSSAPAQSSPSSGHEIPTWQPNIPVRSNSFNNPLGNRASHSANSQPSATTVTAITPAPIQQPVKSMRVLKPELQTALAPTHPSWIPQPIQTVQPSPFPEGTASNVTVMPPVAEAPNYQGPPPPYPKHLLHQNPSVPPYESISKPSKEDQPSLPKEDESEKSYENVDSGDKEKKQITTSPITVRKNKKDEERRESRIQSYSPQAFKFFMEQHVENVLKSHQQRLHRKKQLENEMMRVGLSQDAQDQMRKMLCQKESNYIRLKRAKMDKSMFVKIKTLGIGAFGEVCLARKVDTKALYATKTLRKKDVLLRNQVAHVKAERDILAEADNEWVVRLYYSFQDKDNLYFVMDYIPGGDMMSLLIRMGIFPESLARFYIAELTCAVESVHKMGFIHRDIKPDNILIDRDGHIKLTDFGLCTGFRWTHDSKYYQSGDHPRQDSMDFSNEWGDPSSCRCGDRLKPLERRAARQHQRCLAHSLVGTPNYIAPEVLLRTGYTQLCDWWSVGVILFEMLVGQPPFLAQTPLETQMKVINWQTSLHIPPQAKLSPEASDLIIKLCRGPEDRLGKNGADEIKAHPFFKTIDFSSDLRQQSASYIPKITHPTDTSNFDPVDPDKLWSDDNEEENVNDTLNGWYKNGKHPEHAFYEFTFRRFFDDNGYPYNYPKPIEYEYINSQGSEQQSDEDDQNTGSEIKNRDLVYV

In assay [3] the target is T2, Flag-LATS2 (large tumor suppressor kinase 2) (UniProt Q9NRM7).
T2 sequence: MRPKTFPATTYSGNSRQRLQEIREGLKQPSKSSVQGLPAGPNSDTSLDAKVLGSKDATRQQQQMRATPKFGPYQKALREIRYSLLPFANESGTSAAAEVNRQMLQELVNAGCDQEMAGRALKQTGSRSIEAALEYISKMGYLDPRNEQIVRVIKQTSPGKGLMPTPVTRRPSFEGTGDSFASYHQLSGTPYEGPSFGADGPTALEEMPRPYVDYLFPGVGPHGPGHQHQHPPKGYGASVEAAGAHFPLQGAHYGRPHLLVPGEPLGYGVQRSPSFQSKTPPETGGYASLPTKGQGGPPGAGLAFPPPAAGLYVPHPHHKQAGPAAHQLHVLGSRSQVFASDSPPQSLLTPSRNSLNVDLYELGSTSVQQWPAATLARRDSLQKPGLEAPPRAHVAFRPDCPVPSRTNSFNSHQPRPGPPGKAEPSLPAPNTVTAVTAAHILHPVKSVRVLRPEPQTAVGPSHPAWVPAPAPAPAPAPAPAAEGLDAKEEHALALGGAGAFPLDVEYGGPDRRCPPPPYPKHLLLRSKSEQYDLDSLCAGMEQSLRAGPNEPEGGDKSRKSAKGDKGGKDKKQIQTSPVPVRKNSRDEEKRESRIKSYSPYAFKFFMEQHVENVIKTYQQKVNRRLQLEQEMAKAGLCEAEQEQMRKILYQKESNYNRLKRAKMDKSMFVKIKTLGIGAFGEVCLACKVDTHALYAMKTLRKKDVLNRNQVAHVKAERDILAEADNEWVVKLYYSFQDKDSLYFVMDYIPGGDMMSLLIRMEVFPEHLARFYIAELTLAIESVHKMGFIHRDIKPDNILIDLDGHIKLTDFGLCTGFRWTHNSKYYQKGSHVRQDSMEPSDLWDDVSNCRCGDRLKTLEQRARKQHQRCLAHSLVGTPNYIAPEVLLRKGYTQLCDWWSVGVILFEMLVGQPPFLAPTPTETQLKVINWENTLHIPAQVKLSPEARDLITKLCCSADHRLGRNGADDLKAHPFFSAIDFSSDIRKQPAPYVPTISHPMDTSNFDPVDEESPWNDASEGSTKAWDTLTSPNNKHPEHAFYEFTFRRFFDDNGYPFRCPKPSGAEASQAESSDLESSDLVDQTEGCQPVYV

No constants are given. Whether binding was seen depends on the method and setting. Binding seen in cells or lysates may run through a third protein. Some binding calls cover weakened binding; strength is not graded here. For part of these data: Where a sequence is shown, tags or fusion partners need not be part of it.

In the case of “Myc-FBXW5 (F-box and WD repeat domain-containing 5) (from UniProt Q969U6 1-566)”, the values for the binding result in assay [1], in assay [2] and in assay [3] were “no binding”, “binds” and “no binding”, respectively.
